Measured values as given in PubChem BioAssay AID493014 (National Center for Advancing Translational Sciences (NCATS), 2011).
The list shows a part of the results. The main result of the screen is listed elsewhere. These columns were measured beside it and carry no call. Most of these compounds were active or inconclusive in the main read-out, so they are no random draw. Potencies come from curve fits of mixed quality, noted in brackets.

Experiment: qHTS Assay to Find Inhibitors of Chronic Active B-Cell Receptor Signaling
Conditions: ABC-DLBCL IkBa-CBG/CBR reporter, luminescence ratio (green luciferase fused to IkBa over red control in TMD8 lymphoma cells), 4 h
Outline: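 Cell line TMD8 (human ABC DLBCL), stably expressing tet-inducible CBG68-IkBa fusion and CBR; IMDM/0.5% FBS; cpd up to 46 uM; dox induction, 4 h, 37C/5% CO2; dual luminescence; green/red ratio; MG132 control.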

[1] = measured here: CBR red luminescence, cell number
[2] = measured here: IkBa-CBG green luminescence

Structure (SMILES)	AC50 [1]	AC50 [2]
O=C(Nc1ccon1)c1cccc(S(=O)(=O)N2CCCCC2)c1	35.5 µM [falling, single point]	–
COc1cccc(NC(=O)COC(=O)c2ccccc2C(=O)N2CCN(c3ccccc3)CC2)c1	28.2 µM [falling, partial curve, poor fit]	–
CCN(CC)S(=O)(=O)c1cccc(-c2n[nH]c(=S)n2/N=C/c2ccc(OC(F)F)cc2)c1	11.6 µM [rising, partial curve, poor fit]	–
O=C(CCNC(=O)Cn1ccc2ccccc2c1=O)NCCN1CCc2ccccc2C1	6.51 µM [rising, single point]	–
COC(=O)c1ccc(S(=O)(=O)N2CCCCC2)o1	29.1 µM [rising, single point]	–
Cc1ccc(-c2csc(-c3cc(C)on3)n2)cc1	17.8 µM [rising, partial curve, poor fit]	–
Cc1ccc(CNS(=O)(=O)c2ccc(C(C)(C)C)cc2)n1C	6.51 µM [falling, single point]	–
COc1ccc(C2N(Cc3ccccc3)CCN2Cc2ccccc2)cc1[N+](=O)[O-]	14.1 µM [falling, partial curve, poor fit]	–
O=C(OCc1cccc([N+](=O)[O-])c1)c1ccncc1	35.5 µM [rising, single point]	–
NNC(=O)c1ccc(COc2ccc(Br)cc2)o1	35.5 µM [falling, single point]	–
N#Cc1c(N)nc(SCc2ccccc2)c(C#N)c1-c1ccco1	10 µM [falling, partial curve, poor fit]	–
CN1CCN(C2=Nc3cc(Cl)ccc3Nc3ccccc32)CC1	35.5 µM [falling, single point]	–
CC(C)N(C)Cc1cn(C)nc1-c1ccc(Oc2ccccc2)cc1	35.5 µM [rising, single point]	–
O=C(CCl)N(Cc1cccc([N+](=O)[O-])c1)c1cccc(Cl)c1	20 µM [falling, partial curve, poor fit]	5.01 µM [rising, partial curve, poor fit]
CCOc1ccccc1-n1c(COc2ccc(C)cc2)nnc1SCC(N)=O	0.184 µM [falling, full curve, poor fit]	–
Cc1cc(C)nc(NC(=O)c2ccccc2O)n1	5.62 µM [falling, full curve, poor fit]	–
COc1ccc(-c2[nH]c(-c3ccc(F)cc3)nc2SCC(=O)NCc2ccco2)cc1OC	1.58 µM [rising, full curve, poor fit]	–
O/N=C1\CCCCc2ccccc21	35.5 µM [falling, single point]	–
COc1ccc(C)cc1NC(=O)c1cnc2n(c1=O)CCS2	4.61 µM [rising, single point]	–
CCCCNC(=O)CC1N=C2c3ccccc3N=C(SCC(=O)Nc3cccc(C)c3)N2C1=O (stereo not given)	28.2 µM [rising, single point]	–
CN(C)CCn1c2c(c(SCC(=O)Nc3nccs3)nc1=O)CCCC2	10.3 µM [falling, partial curve]	–

Random excerpt: 3 compounds from above
Structure (SMILES)	AC50 [1]	AC50 [2]
COc1ccc(C2N(Cc3ccccc3)CCN2Cc2ccccc2)cc1[N+](=O)[O-]	14.1 µM [falling, partial curve, poor fit]	–
CN(C)CCn1c2c(c(SCC(=O)Nc3nccs3)nc1=O)CCCC2	10.3 µM [falling, partial curve]	–
O=C(Nc1ccon1)c1cccc(S(=O)(=O)N2CCCCC2)c1	35.5 µM [falling, single point]	–

Carrying on.

Structure (SMILES)	AC50 [1]	AC50 [2]
CCc1ccc(/C=N/NC(=O)c2cc(-c3ccncc3)nc3ccccc23)s1	6.51 µM [rising, full curve]	8.2 µM [falling, partial curve]
CC(C)c1cc(C(=O)Nc2cccnc2)no1	9.2 µM [falling, partial curve]	–
CCOC(=O)c1c(/N=C/c2cccc([N+](=O)[O-])c2O)sc2c1CCC2	17.8 µM [falling, partial curve, poor fit]	–
CCc1ccc(Nc2nnc(SCC(=O)N(C)C3CCS(=O)(=O)C3)s2)cc1 (stereo not given)	8.91 µM [falling, partial curve, poor fit]	–
CC(C)N(Cc1nnc(-c2ccc(Cl)cc2)o1)C(=O)c1cc2ccccc2o1	2.06 µM [rising, partial curve, poor fit]	–
O=C(N/N=C/C=C/c1ccccc1)c1ccncc1	13 µM [falling, partial curve]	–
COCCCn1c(=O)/c(=C\c2ccc(OC(F)F)c(OC)c2)s/c1=C(/C#N)C(=O)NCCOC	0.1 µM [falling, full curve, poor fit]	–
CCc1c(C)nc(N)n2c(SCC(=O)Nc3ccccc3OC)nnc12	1.78 µM [falling, full curve, poor fit]	–
NNC(=O)/C(=C/c1cccs1)NC(=O)c1ccccc1Cl	–	17.8 µM [falling, single point]
O=C(COC(=O)CN1C(=O)c2ccccc2C1=O)Nc1ccc(S(=O)(=O)N2CCCC2)cc1	6.51 µM [rising, full curve, poor fit]	–
C#CCOC(=O)/C(=C/c1ccc(F)cc1)NC(C)=O	2.06 µM [falling, partial curve, poor fit]	–
O=C(N/N=C/c1cc(Br)ccc1O)c1ccccc1Cl	2.59 µM [falling, partial curve, poor fit]	–
CSC1=C(C#N)C(c2ccc3c(c2)OCO3)C2=C(CCCC2=O)N1 (stereo not given)	29.1 µM [rising, single point]	–
CCn1c(SCC(=O)N=Nc2c(O)[nH]c3ccccc23)nc2ccccc21	0.651 µM [falling, partial curve, poor fit]	–
CC1(C)C/C(=N\NC(=S)Nc2ccccc2F)c2cc(O)ccc2O1	–	15.8 µM [falling, partial curve, poor fit]
Cc1cc(C(=O)NC2CCCc3ccccc32)no1 (stereo not given)	17.8 µM [falling, single point]	–
CCC(=O)Nc1ccc(N2CCCCC2)c(C(=O)Nc2ccccc2C)c1	3.26 µM [rising, single point]	–
COC(=O)C1C(=O)C=C(Nc2ccc(F)cc2)CC1c1ccc(OC)cc1 (stereo not given)	23.1 µM [rising, single point]	–
CSCC[C@@H](C(=O)Nc1ccc2c(c1)OCCO2)N1Cc2ccccc2C1=O	3.66 µM [falling, full curve, poor fit]	–
CC(C)(C)NC(=S)NNC(=O)c1ccccc1Cl	9.2 µM [falling, partial curve]	–
NC1=NC[C@@H](Cc2ccc(O)cc2)N1CCc1cc(C(F)(F)F)cc(C(F)(F)F)c1	35.5 µM [falling, single point]	–

Structure (SMILES)	AC50 [1]	AC50 [2]
C#CCOCCOCCOCCNc1nc(N2CCN(C(=O)CCCCCCCCCCNC(=O)[C@H](CO)n3cc(CCCSC)nn3)CC2)nc(N2CCN(C(=O)CCCCCCCCCCNC(=O)[C@H](CCCCN)n3cc(C[C@@H](C)CC)nn3)CC2)n1	4.11 µM [falling, single point]	–
COc1cc(NC(=O)c2cccs2)c(OC)cc1NC(=O)CCC(=O)Nc1cccc2ncccc12	3.98 µM [falling, full curve, poor fit]	–
Cc1ccc(N(C)C(=O)n2cnc3ccccc32)cc1	15.8 µM [falling, single point]	28.2 µM [rising, single point]
CC(C)(C)c1csc(NC(=O)c2ccc(Br)o2)n1	11.2 µM [falling, partial curve, poor fit]	–
COc1cccc(CNc2ncc(-c3ccc(Br)cc3)n2C)c1	10 µM [falling, partial curve, poor fit]	–
Cc1nn(C)c(=O)n1-c1ccc(OCc2ccccc2)cc1	23.1 µM [falling, partial curve, poor fit]	–
O=C(NCCc1ccccc1)c1c(O)c2cccc3c2n(c1=O)CC3	18.4 µM [rising, single point]	–
Cc1ccc(Sc2ccc(NC(=O)CCN3C(=O)NC4(CCCC4)C3=O)cc2)c(C)c1	7.31 µM [falling, partial curve, poor fit]	–
CN(C)C(=O)Nc1ccccc1	6.31 µM [rising, partial curve, poor fit]	–
c1ccc(CCc2nc(-c3ccccc3)no2)cc1	14.1 µM [falling, single point]	–
O=C(c1ccc(OC2CCN(C(=O)c3cccnc3)CC2)cc1)N1CCCCCC1	11.2 µM [rising, partial curve, poor fit]	–
CCc1ccccc1N(CC(=O)Nc1cccnc1)S(=O)(=O)c1ccccc1	11.2 µM [falling, partial curve]	–
COc1ccc2oc(C(=O)OCC(=O)N3CCCC3=O)c(C)c2c1	8.2 µM [rising, partial curve, poor fit]	–
C=CCn1c(O)c2ccc(C(=O)N=NC(=O)COc3ccccc3F)cc2c1O	2.91 µM [falling, partial curve, poor fit]	–
CC(=O)Nc1ccc(S(=O)(=O)N2CCN(S(=O)(=O)N3CCCCCC3)CC2)cc1	1.3 µM [falling, partial curve]	–
CCOc1ncccc1C(=O)OCC(=O)NC1CCCCC1	13 µM [rising, partial curve, poor fit]	–
CCCCCCCCCCCCCCCC(=O)OC(CC(=O)O)C[N+](C)(C)C (stereo not given)	18.4 µM [falling, partial curve, poor fit]	–
O=C1NN(c2ccccc2)C(=O)/C1=C/c1ccc(-c2cccc(C(=O)O)c2)o1	10 µM [falling, partial curve, poor fit]	–
CC(=O)c1ccc(C(=O)N(Cc2cccnc2)c2nc3c(Cl)cccc3s2)cc1	11.2 µM [falling, partial curve]	–
CC12CCC(C(=O)N(NC(=O)c3ccccc3Cl)C1=O)C2(C)C (stereo not given)	4.61 µM [falling, full curve]	–
